Results: publication PMC4051630, “A Comparison of Protein Kinases Inhibitor Screening Methods Using Both Enzymatic Activity and Binding Affinity Determination” (PLoS ONE, 2014)

Tested on: protein kinases
Experiment: DSF screen, observations over the kinase panel
Type: binding
Conditions: over all kinases screened, 10 µM inhibitor

| Structure (SMILES) | Behaviour in the DSF screen |
| --- | --- |
| O=C1NC(=O)c2c1c1c3ccccc3n3c1c1c2c2ccccc2n1C1CCC3O1 [SB 218078] | interfere with the fluorescence from the dye |
| CCCCCCCCCCCCCCCCn1cc[n+](Cc2ccccc2)c1C.[I-] [eEF-2 Kinase Inhibitor, NH125] | only produced negative Tm shifts |
